# Results reported in patent US20110104705A1, “Musclin receptor and use thereof” (Takeda Pharmaceutical Company Limited, priority 2006, published 2011).
# No constants are given. Whether binding was seen depends on the method and setting. Some binding calls cover weakened binding; strength is not graded here. Sequences can lack the tags named with a protein.
# T1: human NPR3 (hNpr3) expressed on FreeStyle293 cells (human) (UniProt P17342)
# T1 sequence: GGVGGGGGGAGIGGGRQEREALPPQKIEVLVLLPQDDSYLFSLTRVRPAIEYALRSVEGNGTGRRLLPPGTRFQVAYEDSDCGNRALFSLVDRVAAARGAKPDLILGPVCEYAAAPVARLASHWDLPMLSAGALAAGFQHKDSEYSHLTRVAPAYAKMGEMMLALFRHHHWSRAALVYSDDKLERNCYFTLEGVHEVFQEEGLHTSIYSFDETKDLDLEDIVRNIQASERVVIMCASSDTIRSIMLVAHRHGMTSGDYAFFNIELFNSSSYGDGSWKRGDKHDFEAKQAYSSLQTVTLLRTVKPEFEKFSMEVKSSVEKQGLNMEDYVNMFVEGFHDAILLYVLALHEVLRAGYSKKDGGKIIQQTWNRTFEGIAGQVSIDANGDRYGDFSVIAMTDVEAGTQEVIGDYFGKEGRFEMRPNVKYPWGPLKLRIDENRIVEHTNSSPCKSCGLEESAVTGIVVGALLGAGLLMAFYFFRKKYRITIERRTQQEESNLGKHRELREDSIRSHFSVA
# Target: T1, human NPR3 (hNpr3) expressed on FreeStyle293 cells (human)
# Test: competition with BK-/BC-mMusclin on hNpr3-transfected FreeStyle293 cells, single concentration; binding shown by displacement
row,Binder,binding
1,C-terminal mMusclin (mCA) protein (peptide) SFSGFGSPLDRLSAGSVEHRGKQRKAVDHSKKRFGIPMDRIGRNRLSSSRG,binds
2,His-Tyr-Cys-mMusclin (unlabeled) (ligand) MGSSHHHHHHSSGLVPYGCHMLASQEFGTASLQSPPTAREEKSATELSAKLLRLDDLVSLENDVFETKKKRSFSGFGSPLDRLSAGSVEHRGKQRKAVDHSKKRFGIPMDRIGRNRLSSSRG,binds
